In PMC6776562, “Inhibition of Rac1-dependent forgetting alleviates memory deficits in animal models of Alzheimer’s disease” (Protein & Cell, 2019):

Experiment: In vitro blood-brain barrier permeability assay
Type: in vitro ADME
Conditions: dog, 37 °C, MDR-MDCK
Description: The MDR-MDCK cell line can be used as a fast blood-brain barrier (BBB) model to aid drug discovery (Wang et al., [2005]). In this study, the MDR-MDCK cell line was used to evaluate the permeability coefficients of CS7171 and JKF-034. Briefly, CS7171 and JKF-034 were prepared to final concentrations of 5 μmol/L. The cells were dosed on the basolateral side (B-A) and apical side (A-B) and incubated at 37 °C for 90 min. Each test was performed in duplicate. The apparent permeability coefficient, Papp, was calculated using the following formula: Papp=VA/Area×Time×(drugacceptor,90-min/drugdonor,0-min×Dilution Factor
VA is the volume in the acceptor well, Area is the surface area of the membrane, Time is the total transport time in seconds, [drug]donor, 0-min is the donor drug concentration measured at 0 min; [drug]acceptor, 90-min is the acceptor drug concentration measured at 90 min; dilution factor is the degree of dilution of the donor sample before loading to LC-MS/MS. If the measured permeability coefficient (Papp) is greater than 10 × 10^−6 cm/s, it is highly likely that this compound could be efficient in crossing the BBB. […] A Papp value of 5–10 × 10^−6 cm/s indicates moderate permeability. Metoprolol was used as a highly permeable control, while atenolol was used as a low-permeability control.

Structure (SMILES): CC(C)NCC(O)COc1ccc(CC(N)=O)cc1 (centres unmarked) [Atenolol, atenolol, reference compound]
- Papp A→B at 90 min, 5 μmol/L (MDCK-MDR1, A-B): < 2.09 ×10⁻⁶ cm/s
- Papp B→A at 90 min, 5 μmol/L (MDCK-MDR1, B-A): < 1.02 ×10⁻⁶ cm/s
